According to patent US8802353B2, “Compound for resist and radiation-sensitive composition specification” (Mitsubishi Gas Chemical Company, Inc., priority 2004, dated 2014):
Some entries repeat one wording, which the source may state once for all of them.

Test: Amount of residual metal (ICP-MS)
Type: physicochemical
Conditions: ICP-MS after wet-ashing

SMILES	Residual metal
Cc1cc(C(c2ccc3cc(C(c4cc(C)c(O)cc4C)c4cc(C)c(O)cc4C)ccc3c2)c2cc(C)c(O)cc2C)c(C)cc1O [Compound 101, tetrakis(2,5-xylenol)-2,6-naphthalenedialdehyde]	A (rated A when the amount was less than 1 ppm)
Cc1cc(C(c2ccc3cc(C(c4cc(C)c(O)c(C)c4C)c4cc(C)c(O)c(C)c4C)ccc3c2)c2cc(C)c(O)c(C)c2C)c(C)c(C)c1O [Compound 102]	A (rated A when the amount was less than 1 ppm)
Cc1cc(O)c(C(C)C)cc1C(c1ccc2cc(C(c3cc(C(C)C)c(O)cc3C)c3cc(C(C)C)c(O)cc3C)ccc2c1)c1cc(C(C)C)c(O)cc1C [Compound 103]	A (rated A when the amount was less than 1 ppm)
Cc1cc(C(c2ccc3ccc(C(c4cc(C)c(O)cc4C)c4cc(C)c(O)cc4C)cc3c2)c2cc(C)c(O)cc2C)c(C)cc1O [Compound 104]	A (rated A when the amount was less than 1 ppm)
Cc1cc(C(c2ccc3ccc(C(c4cc(C)c(O)c(C)c4C)c4cc(C)c(O)c(C)c4C)cc3c2)c2cc(C)c(O)c(C)c2C)c(C)c(C)c1O [Compound 105]	A (rated A when the amount was less than 1 ppm)
Cc1cc(C(c2ccc(-c3cccc(-c4ccc(C(c5cc(C)c(O)cc5C)c5cc(C)c(O)cc5C)cc4)c3)cc2)c2cc(C)c(O)cc2C)c(C)cc1O [Compound 106]	A (rated A when the amount was less than 1 ppm)
Cc1cc(C(c2ccc(-c3ccc(-c4ccc(C(c5cc(C)c(O)cc5C)c5cc(C)c(O)cc5C)cc4)cc3)cc2)c2cc(C)c(O)cc2C)c(C)cc1O [Compound 107]	A (rated A when the amount was less than 1 ppm)
Cc1cc(C(c2cc(C(c3cc(C)c(O)c(C)c3C)c3cc(C)c(O)c(C)c3C)cc(C(c3cc(C)c(O)c(C)c3C)c3cc(C)c(O)c(C)c3C)c2)c2cc(C)c(O)c(C)c2C)c(C)c(C)c1O [Compound 108]	A (rated A when the amount was less than 1 ppm)
Cc1cc(C(C)(c2ccc(O)c(C)c2)c2ccc3ccccc3c2)ccc1O [Compound 206, 1-(2-naphthyl)-1,1-bis(3-methyl-4-hydroxyphenyl)ethane, reference compound]	A (rated A when the amount was less than 1 ppm)
Oc1ccc(C2(c3ccc(O)cc3)c3ccccc3-c3ccccc32)cc1 [Compound 209, bisphenol fluorene, reference compound]	A (rated A when the amount was less than 1 ppm)
